Among the data in article PMC8481269 are binding values, retold here.

Sequences of proteins named here, by UniProt entry; tags and fusion partners are left off.
UniProt Q99836: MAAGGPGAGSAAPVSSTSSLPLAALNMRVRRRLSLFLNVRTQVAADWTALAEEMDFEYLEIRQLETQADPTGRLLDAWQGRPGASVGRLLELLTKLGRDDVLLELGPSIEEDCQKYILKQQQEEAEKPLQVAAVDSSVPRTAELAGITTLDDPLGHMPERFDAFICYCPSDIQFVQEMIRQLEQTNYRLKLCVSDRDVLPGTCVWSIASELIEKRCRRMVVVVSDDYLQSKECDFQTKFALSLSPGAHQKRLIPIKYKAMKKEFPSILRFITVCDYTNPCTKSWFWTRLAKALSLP
UniProt Q15746: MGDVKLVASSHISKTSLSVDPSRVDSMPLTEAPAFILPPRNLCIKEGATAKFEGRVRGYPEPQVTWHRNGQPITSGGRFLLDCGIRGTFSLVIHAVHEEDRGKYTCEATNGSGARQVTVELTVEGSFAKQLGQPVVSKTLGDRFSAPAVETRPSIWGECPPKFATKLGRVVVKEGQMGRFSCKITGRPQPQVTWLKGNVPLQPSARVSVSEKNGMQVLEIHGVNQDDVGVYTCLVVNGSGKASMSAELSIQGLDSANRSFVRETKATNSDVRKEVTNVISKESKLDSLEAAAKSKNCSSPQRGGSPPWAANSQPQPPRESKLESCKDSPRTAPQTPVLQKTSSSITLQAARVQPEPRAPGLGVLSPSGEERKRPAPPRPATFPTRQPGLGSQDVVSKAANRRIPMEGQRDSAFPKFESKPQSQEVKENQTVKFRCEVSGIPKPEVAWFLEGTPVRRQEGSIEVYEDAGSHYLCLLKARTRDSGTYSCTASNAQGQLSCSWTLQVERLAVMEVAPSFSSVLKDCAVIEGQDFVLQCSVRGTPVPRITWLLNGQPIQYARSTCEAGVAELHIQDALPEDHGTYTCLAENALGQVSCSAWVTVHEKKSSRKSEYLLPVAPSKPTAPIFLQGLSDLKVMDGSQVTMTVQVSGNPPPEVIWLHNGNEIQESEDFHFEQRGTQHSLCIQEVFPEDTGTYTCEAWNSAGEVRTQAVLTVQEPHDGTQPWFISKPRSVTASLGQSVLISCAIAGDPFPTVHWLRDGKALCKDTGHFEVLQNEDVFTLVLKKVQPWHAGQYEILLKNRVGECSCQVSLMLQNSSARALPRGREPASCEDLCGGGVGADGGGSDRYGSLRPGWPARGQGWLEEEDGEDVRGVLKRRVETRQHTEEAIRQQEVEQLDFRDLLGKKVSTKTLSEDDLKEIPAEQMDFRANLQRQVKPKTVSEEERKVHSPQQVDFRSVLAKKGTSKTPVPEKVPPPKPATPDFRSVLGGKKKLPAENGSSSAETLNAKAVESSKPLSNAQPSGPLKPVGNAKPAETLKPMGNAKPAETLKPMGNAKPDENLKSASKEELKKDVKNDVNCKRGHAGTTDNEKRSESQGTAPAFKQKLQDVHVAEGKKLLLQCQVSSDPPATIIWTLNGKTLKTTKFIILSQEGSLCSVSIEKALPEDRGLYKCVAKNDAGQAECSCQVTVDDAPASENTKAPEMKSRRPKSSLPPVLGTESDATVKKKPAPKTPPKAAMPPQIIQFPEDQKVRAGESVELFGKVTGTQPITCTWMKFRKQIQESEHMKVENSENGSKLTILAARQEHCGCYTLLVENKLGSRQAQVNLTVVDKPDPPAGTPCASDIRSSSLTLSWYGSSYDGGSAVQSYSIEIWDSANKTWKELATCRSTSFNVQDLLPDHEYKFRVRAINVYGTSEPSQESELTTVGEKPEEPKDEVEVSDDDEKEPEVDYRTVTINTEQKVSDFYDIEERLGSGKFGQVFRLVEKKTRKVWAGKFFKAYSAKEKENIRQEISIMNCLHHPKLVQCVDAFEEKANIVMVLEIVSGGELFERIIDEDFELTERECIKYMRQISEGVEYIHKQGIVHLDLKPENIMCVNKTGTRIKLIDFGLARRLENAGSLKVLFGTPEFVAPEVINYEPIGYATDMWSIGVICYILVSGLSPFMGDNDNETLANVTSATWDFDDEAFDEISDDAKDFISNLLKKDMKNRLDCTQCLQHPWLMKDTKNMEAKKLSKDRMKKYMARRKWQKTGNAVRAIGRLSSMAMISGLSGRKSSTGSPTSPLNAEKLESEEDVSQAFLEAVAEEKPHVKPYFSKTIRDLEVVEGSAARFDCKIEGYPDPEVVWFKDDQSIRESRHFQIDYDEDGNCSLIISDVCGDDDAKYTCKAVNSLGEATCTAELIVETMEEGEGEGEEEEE
UniProt Q14790: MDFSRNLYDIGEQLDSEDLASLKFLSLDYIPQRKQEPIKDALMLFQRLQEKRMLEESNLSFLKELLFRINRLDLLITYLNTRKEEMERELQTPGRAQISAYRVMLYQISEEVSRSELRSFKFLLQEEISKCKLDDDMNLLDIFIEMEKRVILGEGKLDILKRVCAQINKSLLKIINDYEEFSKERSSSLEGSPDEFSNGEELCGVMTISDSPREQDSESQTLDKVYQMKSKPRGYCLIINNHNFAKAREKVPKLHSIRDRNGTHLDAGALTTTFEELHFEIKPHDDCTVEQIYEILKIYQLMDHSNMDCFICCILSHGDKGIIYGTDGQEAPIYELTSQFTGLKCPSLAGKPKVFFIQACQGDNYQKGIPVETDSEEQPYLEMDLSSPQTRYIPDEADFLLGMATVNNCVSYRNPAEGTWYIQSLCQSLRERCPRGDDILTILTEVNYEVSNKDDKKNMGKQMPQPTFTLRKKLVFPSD

Results are given in words; binding and its absence hold for the method and conditions named. Binding seen in cells or lysates may run through a third protein. Some entries that bind do so weakly or less than the wild type.

Test in all cases: co-IP; endogenous proteins in HepG2 lysates (IP lysis buffer); antibody (anti-nmMYLK, anti-MyD88 or anti-Caspase-8) and magnetic beads at 4 °C all night, washed in PBS, western blot; cells with or without LPS, shCTR or shnmMYLK
For orientation: In western blotting, separated proteins are transferred to a membrane and probed.

The target of assay [1] is MyD88 (human (endogenous in HepG2)) (UniProt Q99836).
Assay [2] concerns the target nonmuscle isoform of myosin light chain kinase (human (endogenous in HepG2)) (UniProt Q15746).
Assay [3] deals with Caspase-8 (human (endogenous in HepG2)) (UniProt Q14790).

In the case of Caspase-8 (from UniProt Q14790 1-479), the binding result in assay [1] is “binds”.
Regarding MyD88 (from UniProt Q99836 1-296), the binding entry in assay [2] and in assay [3] was “binds” throughout.
In the case of “nonmuscle isoform of myosin light chain kinase (from UniProt Q15746 1-1914)”, the binding entry is “binds” in assay [1] and “no binding” in assay [3].
